The record followed here is the supplement of paper PMC8728848.

Some of the results follow.

What all share (assay): glycan array binding signal (z-score within array); higher = stronger binding
Holding throughout (conditions): glycan notation: IUPAC condensed, linker removed

Assay [1] has as its target Neu5Ac(a2-3)GalNAc. In a few lines: (§1)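 Glycan array data came from 3228 arrays in the Consortium for Functional Glycomics database, and only arrays with an available protein sequence were kept. Glycan names were put into IUPAC-condensed notation, and columns mapping to the same glycan were averaged. The binding signal is a within-array Z-score, averaged across arrays of one protein sequence run at different concentrations or buffers and across linkers. A negative Z-score can be read as non-binding.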

The target of assay [2] is Neu5Ac(a2-3)GalNAc(b1-4)GlcNAc. In a few lines: as §1
Assay [3] has as its target Neu5Ac(a2-3)[GalNAc(b1-4)]Gal(b1-4)Glc. In a few lines:
as §1

Assay [4] has as its target Neu5Ac(a2-3)[GalNAc(b1-4)]Gal(b1-4)GlcNAc. The method, boiled down: as §1
Assay [5] deals with Neu5Ac(a2-3)[GalNAc(b1-4)]Gal(b1-4)GlcNAc(b1-3)GalNAc. The method, boiled down: as §1
Assay [6] concerns the target Neu5Ac(a2-3)[Neu5Ac(a2-6)]GalNAc. In a few lines: as §1
For assay [7], the target named is Neu5Ac(a2-6)Gal. In a few lines:
as §1

Assay [8] concerns the target Neu5Ac(a2-6)Gal(b1-3)GlcNAc(b1-3)[Gal(b1-4)GlcNAc(b1-6)]Gal(b1-4)Glc. The method, boiled down: as §1
Assay [9] deals with Neu5Ac(a2-6)Gal(b1-4)Glc. In a few lines:
as §1

Assay [10] concerns the target Neu5Ac(a2-6)Gal(b1-4)GlcNAc. In a few lines: as §1
Assay [11] deals with Neu5Ac(a2-6)Gal(b1-4)GlcNAc(b1-2)Man. In a few lines:
as §1

Assay [12] concerns the target Neu5Ac(a2-6)Gal(b1-4)GlcNAc(b1-2)Man(a1-3)Man(b1-4)GlcNAc(b1-4)GlcNAc. The method, boiled down: as §1
The target in assay [13] is Neu5Ac(a2-6)Gal(b1-4)GlcNAc(b1-2)Man(a1-3)[Gal(b1-4)GlcNAc(b1-2)Man(a1-6)]Man(b1-4)GlcNAc(b1-4)GlcNAc. The method, boiled down: as §1
In assay [14] the target is Neu5Ac(a2-6)Gal(b1-4)GlcNAc(b1-2)Man(a1-3)[GlcNAc(b1-2)Man(a1-6)]Man(b1-4)GlcNAc(b1-4)GlcNAc. The method, boiled down:
as §1

For assay [15], the target named is Neu5Ac(a2-6)Gal(b1-4)GlcNAc(b1-2)Man(a1-3)[GlcNAc(b1-4)][Neu5Ac(a2-6)Gal(b1-4)GlcNAc(b1-2)Man(a1-6)]Man(b1-4)GlcNAc(b1-4)GlcNAc. The method, boiled down: as §1
For assay [16], the target named is Neu5Ac(a2-6)Gal(b1-4)GlcNAc(b1-2)Man(a1-3)[Man(a1-6)]Man(b1-4)GlcNAc(b1-4)GlcNAc. In a few lines:
as §1

Assay [17] deals with Neu5Ac(a2-6)Gal(b1-4)GlcNAc(b1-2)Man(a1-3)[Neu5Ac(a2-3)Gal(b1-4)GlcNAc(b1-2)Man(a1-6)]Man(b1-4)GlcNAc(b1-4)GlcNAc. The method, boiled down: as §1
Assay [18] deals with Neu5Ac(a2-6)Gal(b1-4)GlcNAc(b1-2)Man(a1-3)[Neu5Ac(a2-6)Gal(b1-4)GlcNAc(b1-2)Man(a1-6)]Man(b1-4)GlcNAc(b1-4)GlcNAc. The method, boiled down:
as §1

Assay [19] deals with Neu5Ac(a2-6)Gal(b1-4)GlcNAc(b1-2)Man(a1-3)[Neu5Ac(a2-6)Gal(b1-4)GlcNAc(b1-2)Man(a1-6)]Man(b1-4)GlcNAc(b1-4)[Fuc(a1-6)]GlcNAc. In a few lines:
as §1

Assay [20] deals with Neu5Ac(a2-6)Gal(b1-4)GlcNAc(b1-2)Man(a1-6)Man(b1-4)GlcNAc(b1-4)GlcNAc. The method, boiled down: as §1
Assay [21] concerns the target Neu5Ac(a2-6)Gal(b1-4)GlcNAc(b1-2)Man(a1-6)[Gal(b1-4)GlcNAc(b1-2)Man(a1-3)]Man(b1-4)GlcNAc(b1-4)GlcNAc. The method, boiled down:
as §1

For assay [22], the target named is Neu5Ac(a2-6)Gal(b1-4)GlcNAc(b1-2)Man(a1-6)[GlcNAc(b1-2)Man(a1-3)]Man(b1-4)GlcNAc(b1-4)GlcNAc. In a few lines:
as §1

B1: Awp3 (Candida glabrata), B4UN32 (protein)
chain: MISFVTLLAILGLLSISWADQTVRSVAGDQRVTDPVIVGDNSILDYYGGSNYDFSNNFEIGRGTLYIGKESYFSSFQSAPTDVPNSFHLLIKNTNNLQNNGQFIIENIKRHANQCSNSSIQVFPINFQNDGEFEIISGGVEGRCCLPTSVIAPQNFLNNGKFYYKVLTDTGSIYSGSCMQNVDIGASTTTTVNNNLWEFTGSINAQINGAVSGAAQINLDGSNMFVNANTFSGQVVNLINGGSFLQTSDPLSNIVVINGLGTSDTGVTSIAVKGKGKSFTYNPSSGIVKLTTVEGKTYAYQIGCGYNTKKFITNNDSGASYESADNFFVLTYSEPYSPQTCQLENSSIFSSNFISTSTSSSSSSSSASSLPSSMSSSLPSSLSSSLSSSLSSSMSSSMSSLFIIPPPYTTTRSSGSSIIDTEIVSFYSTTDSPGHTITGTTTTTLYGPHTHSSVSTPSSSSESSTTSNSSIESSSLPHTSVSSTPESSITPSSNTISSSPTSDFSSVQSSSIMESSSVVASSSVINSSSIVDSSSSSASSLPSSMSSSLSSSMSSSLPSSMSSSLSSSLSSSLSSSMSSSMSSLFIIPPPYTTTRSSGSSIIDTEIVSFYSTTDSPGHTITGTTTTTLYGPHTHSSVSTPSSSSESSTTSNSSIESSSLPHTSVSSTPESSITPSSNTISSSPTSDFSSVQSSSIMESSSVVASSSVINSSSIVDSSSSSASSLPSSMPSSLPSSMSSSLSSSMSSSLSSSLSSSLSSSMSSSMSSLFIIPPPYTTTRSSGSSIIDTEIVSFYSTTDSPGHTITGTTTTTLYGPHTHSSVSTPSSSSESSTTSNSSIESSSLPHTSVSSTPESSITPSSNTISSSPTSDFSSVQSSSIMESSSVVASSSATQSSSVINSSSIVDSSSSSASSLPSSMPSSLPSSLSSSLSSSLSSSMSSSMSSLFIIPPPYTTTRSSGSSIIDTEIVSFYSTTDSPGHTITGTTTTTLYESSIYSSSSSTIQESELSNTSRTTMTSNSSVSISSTSSRSSFSNTKSSTIVISQSASLPDSKTDIILSTSSNIGYSSRSLLSDLGTSISDSDIHHSVLHSTESYSSNESGTNPFTSIASLSNFIPESSSHTSTALGSENSVISSDILTTMSHPVATNSGDKPTTPKRSEQVSTTMTSSGPTPDTSSFDTDGMSAYSRPEFTTNSLEVNKSSTSQLGNNKQTFSNLQLESTRPHSENEVDNNTRLLQSIQQSSTYGTNNVNPLSPTGSISIPLTEDGQGDNNNWNSPATNDLCTQISFNLTATTITVTDRITITDSIHDISSEVITSYIYQTIVDQKTVTQTVDGKSLANKMSSIPKPSSRSLIQPQPPVAIELQEGAASTSRVSLVSLFISIILVLL
For the molecule B1, the “glycan array binding signal (z-score)” value is -0.42 in assay [1]; -0.432 in assay [2]; -0.29 in [3]; -0.82 in [4]; -1.1 in [5]; -0.108 in [6]. Besides, the “glycan array binding signal (z-score)” value in assay [7] was -0.738; in assay [8], -0.493; in assay [9], -0.409; in assay [10], -1.29; in assay [11] it was -0.199; in assay [12], -0.609. Moreover, the “glycan array binding signal (z-score)” value in assay [13] is -1.31; in [14], -1.05; in assay [15] it was 0.932; in assay [16], 0.414; in [17], -1.55; in assay [18], -0.993. The “glycan array binding signal (z-score)” value in [19] stood at 2.07; in assay [20] it was 1.39; in [21], 1.17; in [22], 0.603.
